Reference: article PMC6451435
No constants are given. Whether binding was seen depends on the method and setting. Binding seen in cells or lysates may run through a third protein. Some results given as binding are weak or reduced against the parent protein; the word gives no strength. Blank lines part the entries; values can stand above or below the molecule they belong to.

Protein sequences, listed by entry. Tags and fused reporters are not part of them.
UniProt P35222: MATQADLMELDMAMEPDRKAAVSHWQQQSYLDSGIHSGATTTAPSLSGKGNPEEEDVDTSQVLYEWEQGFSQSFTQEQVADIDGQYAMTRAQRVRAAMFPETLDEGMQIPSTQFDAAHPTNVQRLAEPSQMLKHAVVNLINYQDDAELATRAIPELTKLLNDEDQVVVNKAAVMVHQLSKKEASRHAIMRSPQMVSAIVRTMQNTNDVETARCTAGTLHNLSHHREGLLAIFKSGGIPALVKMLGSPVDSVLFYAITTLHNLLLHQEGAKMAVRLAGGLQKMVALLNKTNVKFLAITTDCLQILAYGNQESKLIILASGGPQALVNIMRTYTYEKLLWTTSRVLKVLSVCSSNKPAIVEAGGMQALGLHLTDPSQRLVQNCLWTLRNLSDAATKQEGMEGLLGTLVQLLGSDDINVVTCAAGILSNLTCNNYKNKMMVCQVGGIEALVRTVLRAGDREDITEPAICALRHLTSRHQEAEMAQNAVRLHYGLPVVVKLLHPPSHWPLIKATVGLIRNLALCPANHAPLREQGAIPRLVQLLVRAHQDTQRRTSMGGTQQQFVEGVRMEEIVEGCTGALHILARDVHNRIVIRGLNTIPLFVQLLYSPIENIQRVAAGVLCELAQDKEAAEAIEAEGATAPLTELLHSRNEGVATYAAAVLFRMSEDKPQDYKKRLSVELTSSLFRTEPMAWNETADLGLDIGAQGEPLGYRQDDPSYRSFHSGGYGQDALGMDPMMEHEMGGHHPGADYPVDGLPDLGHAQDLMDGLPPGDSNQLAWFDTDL

Assays:
[1] = target: T1, B-cell lymphoma 3 (BCL-3) (human (endogenous in SW1463 and SW620)) (UniProt P20749); assay: co-IP; BCL-3 immunoprecipitated with anti-BCL-3 antibody on Dynabeads Protein A from 500 µg SW1463 nuclear-enriched lysate pre-cleared with rabbit pan-IgG; cells untreated or treated with 100 ng/ml TNF-α for 6 h before lysis; western blot
T1 sequence: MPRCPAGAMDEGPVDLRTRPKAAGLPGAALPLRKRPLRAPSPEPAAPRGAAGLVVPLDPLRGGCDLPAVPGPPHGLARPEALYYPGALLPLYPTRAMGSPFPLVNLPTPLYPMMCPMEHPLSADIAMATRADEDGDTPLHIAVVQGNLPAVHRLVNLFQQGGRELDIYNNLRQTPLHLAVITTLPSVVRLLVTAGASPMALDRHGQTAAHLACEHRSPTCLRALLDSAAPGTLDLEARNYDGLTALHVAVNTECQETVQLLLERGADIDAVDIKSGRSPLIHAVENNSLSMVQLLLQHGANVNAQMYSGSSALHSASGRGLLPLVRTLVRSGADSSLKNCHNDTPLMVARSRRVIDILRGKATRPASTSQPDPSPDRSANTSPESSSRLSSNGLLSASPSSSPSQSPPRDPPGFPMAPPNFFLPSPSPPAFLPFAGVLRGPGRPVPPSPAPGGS

[2] = target: β-catenin (human (endogenous in SW1463 and SW620)) (UniProt P35222); assay: co-IP; nuclear β-catenin Co-IP in SW620 cells, non-treated and treated with TNF-α for 6 h; mouse pan-IgG as negative control; western blot

binding [1]: binds
Molecule: β-catenin (from UniProt P35222 1-781)

binding [2]: binds
B1: B-cell lymphoma 3 (BCL-3) (protein, UniProt P20749 1-454)
chain: T1 sequence
